{
  "source": "paper PMC7985502",
  "key": {"[1]": {"target": "EGFP-tagged p.Val594Gly mutant SEC23B (human) (UniProt Q15437)", "assay": "affinity purification with mass spectrometry; anti-GFP (Abcam ab290) immunoprecipitation from lysates of stable Nthy-ori 3-1 cells, 10 mg total protein as 2 mg/ml lysates; cells untreated or treated with MG132 (10 uM, 24 h); normal rabbit IgG and Nthy-EGFP cells as negative controls; SDS-PAGE, then mass spectrometry"}, "[2]": {"target": "EGFP-tagged wild-type SEC23B (human) (UniProt Q15437)", "assay": "affinity purification with mass spectrometry; anti-GFP (Abcam ab290) immunoprecipitation from lysates of stable Nthy-ori 3-1 cells, 10 mg total protein as 2 mg/ml lysates; cells untreated or treated with MG132 (10 uM, 24 h); normal rabbit IgG and Nthy-EGFP cells as negative controls; SDS-PAGE, then mass spectrometry"}},
  "note": "These are yes or no findings as the source states them, for the method shown. Binding seen in cells or lysates may run through a third protein. Here binding means that the protein was enriched with, or labelled near, the bait; the list need not be complete. For part of these data: Sequences can lack the tags named with a protein.",
  "data": [
    {"binder": "SEC24A (protein, UniProt O95486 1-1093) MSQPGIPASGGAPASLQAQNGAALASGSPYTNGPVQNALLSSQESVSQGYNFQLPGSYPHPIPAKTLNPVSGQSNYGGSQGSGQTLNRPPVASNPVTPSLHSGPAPRMPLPASQNPATTPMPSSSFLPEANLPPPLNWQYNYPSTASQTNHCPRASSQPTVSGNTSLTTNHQYVSSGYPSLQNSFIKSGPSVPPLVNPPLPTTFQPGAPHGPPPAGGPPPVRALTPLTSSYRDVPQPLFNSAVNQEGITSNTNNGSMVVHSSYDEIEGGGLLATPQLTNKNPKMSRSVGYSYPSLPPGYQNTTPPGATGVPPSSLNYPSGPQAFTQTPLGANHLTTSMSGLSLQPEGLRVVNLLQERNMLPSTPLKPPVPNLHEDIQKLNCNPELFRCTLTSIPQTQALLNKAKLPLGLLLHPFKDLVQLPVVTSSTIVRCRSCRTYINPFVSFLDQRRWKCNLCYRVNDVPEEFLYNPLTRVYGEPHRRPEVQNATIEFMAPSEYMLRPPQPPVYLFVFDVSHNAVETGYLNSVCQSLLDNLDLLPGNTRTKIGFITFDSTIHFYGLQESLSQPQMLIVSDIEDVFIPMPENLLVNLNESKELVQDLLKTLPQMFTKTLETQSALGPALQAAFKLMSPTGGRMSVFQTQLPTLGVGALKPREEPNHRSSAKDIHMTPSTDFYKKLALDCSGQQVAVDLFLLSGQYSDLASLGCISRYSAGSVYYYPSYHHQHNPVQVQKLQKELQRYLTRKIGFEAVMRIRCTKGLSIHTFHGNFFVRSTDLLSLPNVNPDAGYAVQMSVEESLTDTQLVSFQSALLYTSSKGERRIRVHTLCLPVVSTLNDVFLGADVQAISGLLANMAVDRSMTASLSDARDALVNAVIDSLSAYRSSVLSNQQPGLMVPFSLRLFPLFVLALLKQKSFQTGTNARLDERIFAMCQVKNQPLVYLMLTTHPSLYRVDNLSDEGALNISDRTIPQPPILQLSVEKLSRDGAFLMDAGSVLMLWVGKNCTQNFLSQVLGVQNYASIPQPMTDLPELDTPESARIIAFISWLREQRPFFPILYVIRDESPMKANFLQNMIEDRTESALSYYEFLLHIQQQVNK", "values": [
      {"measurement": "binding", "setting": "[1]", "result": "binds"},
      {"measurement": "binding", "setting": "[2]", "result": "binds"}
    ]},
    {"binder": "SEC31A (protein, UniProt O94979 1-1220) MKLKEVDRTAMQAWSPAQNHPIYLATGTSAQQLDATFSTNASLEIFELDLSDPSLDMKSCATFSSSHRYHKLIWGPYKMDSKGDVSGVLIAGGENGNIILYDPSKIIAGDKEVVIAQNDKHTGPVRALDVNIFQTNLVASGANESEIYIWDLNNFATPMTPGAKTQPPEDISCIAWNRQVQHILASASPSGRATVWDLRKNEPIIKVSDHSNRMHCSGLAWHPDVATQMVLASEDDRLPVIQMWDLRFASSPLRVLENHARGILAIAWSMADPELLLSCGKDAKILCSNPNTGEVLYELPTNTQWCFDIQWCPRNPAVLSAASFDGRISVYSIMGGSTDGLRQKQVDKLSSSFGNLDPFGTGQPLPPLQIPQQTAQHSIVLPLKKPPKWIRRPVGASFSFGGKLVTFENVRMPSHQGAEQQQQQHHVFISQVVTEKEFLSRSDQLQQAVQSQGFINYCQKKIDASQTEFEKNVWSFLKVNFEDDSRGKYLELLGYRKEDLGKKIALALNKVDGANVALKDSDQVAQSDGEESPAAEEQLLGEHIKEEKEESEFLPSSGGTFNISVSGDIDGLITQALLTGNFESAVDLCLHDNRMADAIILAIAGGQELLARTQKKYFAKSQSKITRLITAVVMKNWKEIVESCDLKNWREALAAVLTYAKPDEFSALCDLLGTRLENEGDSLLQTQACLCYICAGNVEKLVACWTKAQDGSHPLSLQDLIEKVVILRKAVQLTQAMDTSTVGVLLAAKMSQYANLLAAQGSIAAALAFLPDNTNQPNIMQLRDRLCRAQGEPVAGHESPKIPYEKQQLPKGRPGPVAGHHQMPRVQTQQYYPHGENPPPPGFIMHGNVNPNAAGQLPTSPGHMHTQVPPYPQPQPYQPAQPYPFGTGGSAMYRPQQPVAPPTSNAYPNTPYISSASSYTGQSQLYAAQHQASSPTSSPATSFPPPPSSGASFQHGGPGAPPSSSAYALPPGTTGTLPAASELPASQRTGPQNGWNDPPALNRVPKKKKMPENFMPPVPITSPIMNPLGDPQSQMLQQQPSAPVPLSSQSSFPQPHLPGGQPFHGVQQPLGQTGMPPSFSKPNIEGAPGAPIGNTFQHVQSLPTKKITKKPIPDEHLILKTTFEDLIQRCLSSATDPQTKRKLDDASKRLEFLYDKLREQTLSPTITSGLHNIARSIETRNYSEGLTMHTHIVSTSNFSETSAFMPVLKVVLTQANKLGV", "values": [
      {"measurement": "binding", "setting": "[1]", "result": "binds"},
      {"measurement": "binding", "setting": "[2]", "result": "binds"}
    ]},
    {"binder": "SEC23IP (protein, UniProt Q9Y6Y8 1-1000) MAERKPNGGSGGASTSSSGTNLLFSSSATEFSFNVPFIPVTQASASPASLLLPGEDSTDVGEEDSFLGQTSIHTSAPQTFSYFSQVSSSSDPFGNIGQSPLTTAATSVGQSGFPKPLTALPFTTGSQDVSNAFSPSISKAQPGAPPSSLMGINSYLPSQPSSLPPSYFGNQPQGIPQPGYNPYRHTPGSSRANPYIAPPQLQQCQTPGPPAHPPPSGPPVQMYQMPPGSLPPVPSSVQSPAQQQVPARPGAPSVQVPSPFLLQNQYEPVQPHWFYCKEVEYKQLWMPFSVFDSLNLEEIYNSVQPDPESVVLGTDGGRYDVYLYDRIRKAAYWEEEPAEVRRCTWFYKGDTDSRFIPYTEEFSEKLEAEYKKAVTTNQWHRRLEFPSGETIVMHNPKVIVQFQPSSVPDEWGTTQDGQTRPRVVKRGIDDNLDEIPDGEMPQVDHLVFVVHGIGPVCDLRFRSIIECVDDFRVVSLKLLRTHFKKSLDDGKVSRVEFLPVHWHSSLGGDATGVDRNIKKITLPSIGRFRHFTNETLLDILFYNSPTYCQTIVEKVGMEINHLHALFMSRNPDFKGGVSVAGHSLGSLILFDILSNQKDLNLSKCPGPLAVANGVVKQLHFQEKQMPEEPKLTLDESYDLVVENKEVLTLQETLEALSLSEYFSTFEKEKIDMESLLMCTVDDLKEMGIPLGPRKKIANFVEHKAAKLKKAASEKKAVAATSTKGQEQSAQKTKDMASLPSESNEPKRKLPVGACVSSVCVNYESFEVGAGQVSVAYNSLDFEPEIFFALGSPIAMFLTIRGVDRIDENYSLPTCKGFFNIYHPLDPVAYRLEPMIVPDLDLKAVLIPHHKGRKRLHLELKESLSRMGSDLKQGFISSLKSAWQTLNEFARAHTSSTQLQEELEKVANQIKEEEEKQVVEAEKVVESPDFSKDEDYLGKVGMLNGGRRIDYVLQEKPIESFNEYLFALQSHLCYWESEDTALLLLKEIYRTMNISPEQPQH", "values": [
      {"measurement": "binding", "setting": "[1]", "result": "binds"},
      {"measurement": "binding", "setting": "[2]", "result": "binds"}
    ]}
  ]
}
